Some of the results follow. Residues, ends and D or L forms follow the SMILES beside them. *: point of attachment. Cbz = O=C(OCc1ccccc1)*

The chains behind the UniProt entries cited, without tags or fusion partners. Where a name states a change or a piece, a line headed by the entry shows the natural chain unless it says otherwise.
UniProt P05198, whole entry, looked up: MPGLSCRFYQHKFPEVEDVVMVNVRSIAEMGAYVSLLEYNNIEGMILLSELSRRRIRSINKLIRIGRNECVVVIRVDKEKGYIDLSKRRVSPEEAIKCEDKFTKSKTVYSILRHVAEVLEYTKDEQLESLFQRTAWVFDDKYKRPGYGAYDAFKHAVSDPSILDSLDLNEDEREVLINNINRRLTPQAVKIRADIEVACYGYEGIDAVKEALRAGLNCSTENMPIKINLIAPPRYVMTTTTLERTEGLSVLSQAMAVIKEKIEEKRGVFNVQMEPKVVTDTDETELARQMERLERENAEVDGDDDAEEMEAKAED
UniProt Q9Y262, whole entry, looked up: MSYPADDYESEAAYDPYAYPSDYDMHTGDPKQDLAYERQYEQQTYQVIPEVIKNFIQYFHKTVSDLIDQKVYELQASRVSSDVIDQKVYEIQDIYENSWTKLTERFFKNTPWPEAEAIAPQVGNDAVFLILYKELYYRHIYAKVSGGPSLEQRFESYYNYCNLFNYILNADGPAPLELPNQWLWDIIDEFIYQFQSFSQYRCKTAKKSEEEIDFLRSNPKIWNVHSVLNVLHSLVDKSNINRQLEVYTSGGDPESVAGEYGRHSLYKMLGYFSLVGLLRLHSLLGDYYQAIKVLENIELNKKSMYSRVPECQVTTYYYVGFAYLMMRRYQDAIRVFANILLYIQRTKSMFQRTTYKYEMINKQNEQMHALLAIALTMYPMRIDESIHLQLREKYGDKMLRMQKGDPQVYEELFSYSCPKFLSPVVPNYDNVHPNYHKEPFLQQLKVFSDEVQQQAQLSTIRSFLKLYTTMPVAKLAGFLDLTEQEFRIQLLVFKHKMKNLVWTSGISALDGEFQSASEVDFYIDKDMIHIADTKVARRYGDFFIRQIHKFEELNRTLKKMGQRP
UniProt Q6IA86: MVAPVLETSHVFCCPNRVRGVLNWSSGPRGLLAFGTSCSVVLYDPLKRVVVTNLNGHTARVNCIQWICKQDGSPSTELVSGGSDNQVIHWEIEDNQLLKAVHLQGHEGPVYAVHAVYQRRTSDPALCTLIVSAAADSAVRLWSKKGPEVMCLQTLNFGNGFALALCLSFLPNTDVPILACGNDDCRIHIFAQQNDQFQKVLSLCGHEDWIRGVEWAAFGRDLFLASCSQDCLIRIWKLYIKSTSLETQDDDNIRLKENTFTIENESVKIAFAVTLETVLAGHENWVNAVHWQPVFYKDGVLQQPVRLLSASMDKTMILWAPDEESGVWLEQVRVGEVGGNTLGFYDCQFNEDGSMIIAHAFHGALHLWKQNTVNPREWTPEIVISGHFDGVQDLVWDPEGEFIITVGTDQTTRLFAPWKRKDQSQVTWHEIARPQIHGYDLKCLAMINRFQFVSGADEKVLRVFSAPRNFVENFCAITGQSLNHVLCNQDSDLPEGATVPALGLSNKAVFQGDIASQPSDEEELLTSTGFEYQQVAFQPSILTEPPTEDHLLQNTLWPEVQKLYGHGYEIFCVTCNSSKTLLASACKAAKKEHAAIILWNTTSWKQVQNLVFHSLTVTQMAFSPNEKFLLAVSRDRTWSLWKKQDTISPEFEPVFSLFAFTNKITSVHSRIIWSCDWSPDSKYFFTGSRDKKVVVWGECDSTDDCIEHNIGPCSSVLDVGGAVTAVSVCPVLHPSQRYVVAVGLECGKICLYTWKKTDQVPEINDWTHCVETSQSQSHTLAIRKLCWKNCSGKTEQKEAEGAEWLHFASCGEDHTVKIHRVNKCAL
UniProt Q96KQ7: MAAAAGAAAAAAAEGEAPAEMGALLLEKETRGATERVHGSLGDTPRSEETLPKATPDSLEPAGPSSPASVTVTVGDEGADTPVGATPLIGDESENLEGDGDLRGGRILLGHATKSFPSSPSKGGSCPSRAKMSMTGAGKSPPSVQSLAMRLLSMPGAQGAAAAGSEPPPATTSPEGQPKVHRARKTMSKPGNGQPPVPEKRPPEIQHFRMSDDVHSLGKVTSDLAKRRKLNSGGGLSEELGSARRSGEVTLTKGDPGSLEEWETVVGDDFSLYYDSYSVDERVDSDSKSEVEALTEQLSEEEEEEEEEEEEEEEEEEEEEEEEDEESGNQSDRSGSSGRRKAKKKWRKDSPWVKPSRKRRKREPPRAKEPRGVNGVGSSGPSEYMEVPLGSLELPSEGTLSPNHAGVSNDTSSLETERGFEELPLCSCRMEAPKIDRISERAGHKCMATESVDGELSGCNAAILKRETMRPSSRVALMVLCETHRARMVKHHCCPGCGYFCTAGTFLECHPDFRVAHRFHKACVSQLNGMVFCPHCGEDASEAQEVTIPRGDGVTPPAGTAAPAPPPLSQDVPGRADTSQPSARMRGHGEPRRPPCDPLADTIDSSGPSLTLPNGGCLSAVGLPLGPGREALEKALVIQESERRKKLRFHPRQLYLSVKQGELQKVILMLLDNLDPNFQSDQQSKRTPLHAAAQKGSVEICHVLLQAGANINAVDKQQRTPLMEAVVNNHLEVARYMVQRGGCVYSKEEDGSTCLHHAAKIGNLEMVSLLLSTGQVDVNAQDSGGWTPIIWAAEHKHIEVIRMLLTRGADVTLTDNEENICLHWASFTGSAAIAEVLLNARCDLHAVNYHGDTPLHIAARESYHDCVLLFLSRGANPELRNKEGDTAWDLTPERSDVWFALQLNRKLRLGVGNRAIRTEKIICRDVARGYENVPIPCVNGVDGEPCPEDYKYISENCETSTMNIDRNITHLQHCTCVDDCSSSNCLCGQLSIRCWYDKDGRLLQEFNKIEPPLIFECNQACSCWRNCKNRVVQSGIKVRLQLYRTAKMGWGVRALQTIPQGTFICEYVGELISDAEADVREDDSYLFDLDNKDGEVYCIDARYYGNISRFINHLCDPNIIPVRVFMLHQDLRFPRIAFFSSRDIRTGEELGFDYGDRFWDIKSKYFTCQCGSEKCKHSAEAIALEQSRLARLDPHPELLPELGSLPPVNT
UniProt O75821, whole entry, looked up: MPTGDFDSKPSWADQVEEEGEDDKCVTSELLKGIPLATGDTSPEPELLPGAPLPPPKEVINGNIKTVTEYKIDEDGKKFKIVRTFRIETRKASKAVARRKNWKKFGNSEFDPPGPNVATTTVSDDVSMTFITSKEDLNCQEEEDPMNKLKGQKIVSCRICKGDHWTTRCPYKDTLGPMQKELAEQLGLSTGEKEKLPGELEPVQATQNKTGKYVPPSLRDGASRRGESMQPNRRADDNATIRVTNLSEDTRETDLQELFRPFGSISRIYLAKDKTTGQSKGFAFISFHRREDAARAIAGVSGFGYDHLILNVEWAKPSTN
UniProt Q09472, whole entry, looked up: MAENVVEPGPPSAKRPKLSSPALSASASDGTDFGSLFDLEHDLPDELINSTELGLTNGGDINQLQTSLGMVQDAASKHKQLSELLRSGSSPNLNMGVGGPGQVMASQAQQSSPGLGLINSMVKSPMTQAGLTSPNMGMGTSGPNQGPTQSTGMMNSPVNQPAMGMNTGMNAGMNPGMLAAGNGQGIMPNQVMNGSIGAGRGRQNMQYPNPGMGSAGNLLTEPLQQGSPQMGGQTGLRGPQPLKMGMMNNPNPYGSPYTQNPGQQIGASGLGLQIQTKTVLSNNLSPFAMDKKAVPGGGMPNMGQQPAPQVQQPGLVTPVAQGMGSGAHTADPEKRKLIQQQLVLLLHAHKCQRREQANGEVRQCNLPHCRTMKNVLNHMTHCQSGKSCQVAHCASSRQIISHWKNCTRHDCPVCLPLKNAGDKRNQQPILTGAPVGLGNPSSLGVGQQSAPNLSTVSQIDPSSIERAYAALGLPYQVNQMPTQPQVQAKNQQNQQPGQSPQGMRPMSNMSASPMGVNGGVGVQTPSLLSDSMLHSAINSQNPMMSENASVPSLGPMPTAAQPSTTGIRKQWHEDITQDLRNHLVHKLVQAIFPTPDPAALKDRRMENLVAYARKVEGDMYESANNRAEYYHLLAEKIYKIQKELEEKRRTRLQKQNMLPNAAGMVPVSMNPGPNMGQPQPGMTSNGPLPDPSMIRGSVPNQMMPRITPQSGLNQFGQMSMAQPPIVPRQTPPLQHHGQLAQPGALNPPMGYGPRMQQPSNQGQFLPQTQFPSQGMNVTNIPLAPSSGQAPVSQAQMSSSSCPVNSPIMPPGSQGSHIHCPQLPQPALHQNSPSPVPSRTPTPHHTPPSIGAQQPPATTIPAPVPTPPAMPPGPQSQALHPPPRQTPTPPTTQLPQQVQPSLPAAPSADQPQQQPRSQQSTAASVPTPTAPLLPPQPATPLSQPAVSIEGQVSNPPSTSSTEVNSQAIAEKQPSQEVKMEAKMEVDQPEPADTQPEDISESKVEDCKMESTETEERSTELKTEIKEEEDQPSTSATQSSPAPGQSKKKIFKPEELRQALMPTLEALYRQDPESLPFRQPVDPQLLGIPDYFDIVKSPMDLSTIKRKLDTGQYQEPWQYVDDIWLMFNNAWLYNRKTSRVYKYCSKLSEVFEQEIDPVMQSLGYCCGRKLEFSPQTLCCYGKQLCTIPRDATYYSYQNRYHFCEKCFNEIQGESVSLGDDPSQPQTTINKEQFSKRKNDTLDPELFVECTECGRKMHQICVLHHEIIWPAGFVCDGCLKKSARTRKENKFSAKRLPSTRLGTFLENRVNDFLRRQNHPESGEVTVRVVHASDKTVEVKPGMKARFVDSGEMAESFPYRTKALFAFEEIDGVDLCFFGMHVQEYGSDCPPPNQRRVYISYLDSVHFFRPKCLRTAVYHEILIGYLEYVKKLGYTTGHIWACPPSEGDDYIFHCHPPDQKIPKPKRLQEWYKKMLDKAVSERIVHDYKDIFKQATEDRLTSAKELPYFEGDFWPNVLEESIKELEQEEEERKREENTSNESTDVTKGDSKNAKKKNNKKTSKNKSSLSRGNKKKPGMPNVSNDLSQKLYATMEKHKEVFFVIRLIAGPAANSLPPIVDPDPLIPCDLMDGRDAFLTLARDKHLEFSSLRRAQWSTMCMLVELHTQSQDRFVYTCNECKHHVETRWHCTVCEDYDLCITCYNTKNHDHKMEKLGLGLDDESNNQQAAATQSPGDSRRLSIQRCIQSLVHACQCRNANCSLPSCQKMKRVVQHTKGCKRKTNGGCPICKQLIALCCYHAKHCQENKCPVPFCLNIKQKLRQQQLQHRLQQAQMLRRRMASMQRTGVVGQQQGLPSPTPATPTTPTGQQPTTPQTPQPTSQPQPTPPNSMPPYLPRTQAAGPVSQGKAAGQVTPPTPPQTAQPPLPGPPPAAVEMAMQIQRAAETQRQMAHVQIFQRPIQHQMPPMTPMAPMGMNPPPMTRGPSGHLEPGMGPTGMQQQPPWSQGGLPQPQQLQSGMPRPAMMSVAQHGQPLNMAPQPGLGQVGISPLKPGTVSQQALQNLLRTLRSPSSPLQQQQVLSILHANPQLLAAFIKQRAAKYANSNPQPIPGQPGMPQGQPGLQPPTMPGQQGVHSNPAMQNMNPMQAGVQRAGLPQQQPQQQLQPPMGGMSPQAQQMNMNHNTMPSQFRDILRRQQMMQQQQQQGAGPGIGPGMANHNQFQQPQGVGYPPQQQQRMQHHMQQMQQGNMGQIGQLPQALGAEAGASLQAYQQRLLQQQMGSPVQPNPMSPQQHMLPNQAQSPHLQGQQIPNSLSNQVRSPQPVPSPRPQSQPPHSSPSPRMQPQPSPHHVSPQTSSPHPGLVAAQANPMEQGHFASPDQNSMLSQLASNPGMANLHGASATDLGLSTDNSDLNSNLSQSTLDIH
UniProt P41214: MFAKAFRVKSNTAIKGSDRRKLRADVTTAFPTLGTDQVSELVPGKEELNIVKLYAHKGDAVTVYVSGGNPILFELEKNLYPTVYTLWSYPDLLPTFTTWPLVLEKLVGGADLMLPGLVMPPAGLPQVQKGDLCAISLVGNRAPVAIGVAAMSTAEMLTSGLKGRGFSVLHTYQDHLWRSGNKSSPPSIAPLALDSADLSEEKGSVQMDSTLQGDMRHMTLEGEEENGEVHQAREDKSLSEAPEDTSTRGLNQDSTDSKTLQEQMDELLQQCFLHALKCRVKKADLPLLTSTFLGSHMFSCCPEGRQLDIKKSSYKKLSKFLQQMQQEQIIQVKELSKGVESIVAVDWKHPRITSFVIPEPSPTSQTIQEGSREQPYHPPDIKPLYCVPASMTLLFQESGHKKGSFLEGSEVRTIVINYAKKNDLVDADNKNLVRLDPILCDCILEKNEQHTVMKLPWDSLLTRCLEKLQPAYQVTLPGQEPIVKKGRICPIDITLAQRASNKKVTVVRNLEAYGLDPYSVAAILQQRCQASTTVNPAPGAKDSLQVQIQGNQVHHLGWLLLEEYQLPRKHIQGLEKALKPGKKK
UniProt P98172: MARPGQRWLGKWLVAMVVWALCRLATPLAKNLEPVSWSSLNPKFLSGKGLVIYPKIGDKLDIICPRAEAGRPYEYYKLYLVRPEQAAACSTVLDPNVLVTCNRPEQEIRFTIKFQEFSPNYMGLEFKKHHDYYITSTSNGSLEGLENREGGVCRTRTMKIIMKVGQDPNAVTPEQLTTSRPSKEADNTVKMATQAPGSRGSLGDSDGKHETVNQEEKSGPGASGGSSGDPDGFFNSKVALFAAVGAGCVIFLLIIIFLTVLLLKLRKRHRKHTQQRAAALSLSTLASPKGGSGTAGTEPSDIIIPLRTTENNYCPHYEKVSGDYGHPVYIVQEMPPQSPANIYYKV

Compound in one experiment: CC(C)C1=C2N=C(C=C(N2N=C1)NCC3=CC=CC=C3)NCCCCCCN
In words: log2 fold change, soluble protein after heating vs DMSO (PISA); higher = thermal stabilisation; K562 cells, 10 uM, 30 min; active = over 0.2 and 3.5 SD of the protein, either way, in both replicates (recomputed). The essentials:
(§1)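 Soluble protein was defined as the supernatant after 21,000xg for 90 min. It came from K562 cells at 2×10^6 cells/mL given 10 μM compound for 30 min, heated in aliquots for 3 min across 48°C-58°C, pooled, and extracted in PBS with 0.5% NP-40 at 4°C, and was quantified by TMTpro 16plex LC-MS/MS with equalised channel sums. Thermal stability against control samples, from duplicates, is reported as log2 fold change.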
Turning to EMC7 (UniProt Q9NPA0), the log2 fold change was inactive: -0.037.

EIF2S1 (UniProt P05198): the log2 fold change was inactive: 0.039.

EIF3A (UniProt Q14152): the log2 fold change was inactive: -0.269.

Turning to EIF2B3 (UniProt Q9NR50), the log2 fold change is inactive: -0.101.

As to ENO3 (UniProt P13929), the log2 fold change is inactive: 0.011.

As to EIF3L (UniProt Q9Y262), the log2 fold change was inactive: -0.028.

Turning to EPB41 (UniProt P11171), the log2 fold change is inactive: -0.044.

Take EIF2B2 (UniProt P49770): the log2 fold change is inactive: -0.074.

As to ENSA isoform 3 (UniProt O43768), the log2 fold change is inactive: 0.085.

Regarding ELP2 isoform 6 (UniProt Q6IA86), the log2 fold change was inactive: 0.006.

With EIF1AX (UniProt P47813), the log2 fold change was inactive: 0.002.

As to EMC6 (UniProt Q9BV81), the log2 fold change was inactive: 0.03.

In the case of EIF4B (UniProt P23588), the log2 fold change is inactive: 0.081.

On to EIF3H (UniProt O15372), for which the log2 fold change is inactive: -0.068.

EEFSEC (UniProt P57772): the log2 fold change was inactive: -0.096.

Turning to ELP4 (UniProt Q96EB1), the log2 fold change is inactive: 0.107.

As to ELMOD2 (UniProt Q8IZ81), the log2 fold change was inactive: 0.02.

For the target EML3 isoform 2 (UniProt Q32P44), the log2 fold change was inactive: 0.033.

For ELOB (UniProt Q15370), the log2 fold change was inactive: 0.013.

EEF2 (UniProt P13639): the log2 fold change was inactive: 0.062.

As for EI24 (UniProt O14681), the log2 fold change is inactive: -0.145.

For the target EHMT2 (UniProt Q96KQ7), the log2 fold change was inactive: -0.046.

Regarding EIF1 (UniProt P41567), the log2 fold change was inactive: 0.091.

Regarding EIF3D (UniProt O15371), the log2 fold change was inactive: -0.332.

In the case of ENDOG (UniProt Q14249), the log2 fold change was inactive: -0.003.

For the target EIF3G (UniProt O75821), the log2 fold change is inactive: -0.037.

Consider ELP6 (UniProt Q0PNE2), for which the log2 fold change was inactive: 0.061.

In the case of ENO2 (UniProt P09104), the log2 fold change is inactive: 0.092.

EIF3E (UniProt P60228): the log2 fold change is inactive: -0.238.

On to EHHADH (UniProt Q08426), for which the log2 fold change is inactive: 0.099.

With EP300 (UniProt Q09472), the log2 fold change is inactive: -0.005.

Take EIF2D (UniProt P41214): the log2 fold change was inactive: -0.294.

As to EMP3 (UniProt P54852), the log2 fold change is inactive: 0.166.

For EFNB1 (UniProt P98172), the log2 fold change was inactive: 0.05.

Compound in a further experiment: CC(C)C[C@@H](C=O)NC(=O)[C@H](CC(C)C)NC(=O)[C@H](CC(C)C)NC(=O)OCc1ccccc1
The experiment is described as above. Put shortly:
as §1
For the target EMC7 (UniProt Q9NPA0), the log2 fold change was inactive: 0.043.

Turning to EIF2S1 (UniProt P05198), the log2 fold change was inactive: 0.051.

On to EIF3A (UniProt Q14152), for which the log2 fold change is inactive: 0.078.

For the target EIF2B3 (UniProt Q9NR50), the log2 fold change is inactive: 0.058.

As for ENO3 (UniProt P13929), the log2 fold change is inactive: -0.044.

Turning to EIF3L (UniProt Q9Y262), the log2 fold change was inactive: -0.005.

Consider EPB41 (UniProt P11171), for which the log2 fold change is inactive: 0.012.

With EIF2B2 (UniProt P49770), the log2 fold change was inactive: -0.01.

Turning to ENSA isoform 3 (UniProt O43768), the log2 fold change is inactive: 0.015.

Regarding ELP2 isoform 6 (UniProt Q6IA86), the log2 fold change was inactive: -0.05.

On to EIF1AX (UniProt P47813), for which the log2 fold change was inactive: -0.023.

As to EMC6 (UniProt Q9BV81), the log2 fold change was inactive: -0.093.

On to EIF4B (UniProt P23588), for which the log2 fold change was inactive: 0.048.

As to EIF3H (UniProt O15372), the log2 fold change was inactive: 0.009.

Consider EEFSEC (UniProt P57772), for which the log2 fold change was inactive: -0.049.

As for ELP4 (UniProt Q96EB1), the log2 fold change was inactive: 0.02.

With ELMOD2 (UniProt Q8IZ81), the log2 fold change is inactive: 0.087.

Take EML3 isoform 2 (UniProt Q32P44): the log2 fold change was inactive: 0.111.

Regarding ELOB (UniProt Q15370), the log2 fold change was inactive: -0.025.

With EEF2 (UniProt P13639), the log2 fold change was inactive: -0.002.

For EI24 (UniProt O14681), the log2 fold change was inactive: -0.084.

As for EHMT2 (UniProt Q96KQ7), the log2 fold change was inactive: 0.061.

For EIF1 (UniProt P41567), the log2 fold change is inactive: 0.012.

Turning to EIF3D (UniProt O15371), the log2 fold change is inactive: 0.101.

As to ENDOG (UniProt Q14249), the log2 fold change was inactive: 0.001.

As for EIF3G (UniProt O75821), the log2 fold change is inactive: 0.064.

Turning to ELP6 (UniProt Q0PNE2), the log2 fold change is inactive: 0.018.

Regarding ENO2 (UniProt P09104), the log2 fold change is inactive: -0.04.

For EIF3E (UniProt P60228), the log2 fold change is inactive: 0.136.

As for EHHADH (UniProt Q08426), the log2 fold change was inactive: -0.011.

Turning to EP300 (UniProt Q09472), the log2 fold change was inactive: 0.064.

Regarding EIF2D (UniProt P41214), the log2 fold change was inactive: 0.032.

On to EMP3 (UniProt P54852), for which the log2 fold change was inactive: -0.002.

On to EFNB1 (UniProt P98172), for which the log2 fold change was inactive: -0.125.

Compound in a further experiment: CC(C)N(C[C@H]1O[C@@H](n2cnc3c(N)ncnc32)[C@H](O)[C@@H]1O)[C@H]1C[C@@H](CCc2nc3cc(C(C)(C)C)ccc3[nH]2)C1 [pinometostat]
The experiment is described as above. The essentials: as §1
EMC7 (UniProt Q9NPA0): the log2 fold change was inactive: 0.004.

With EIF2S1 (UniProt P05198), the log2 fold change is inactive: 0.073.

Regarding EIF3A (UniProt Q14152), the log2 fold change is inactive: 0.134.

On to EIF2B3 (UniProt Q9NR50), for which the log2 fold change was inactive: 0.071.

As to ENO3 (UniProt P13929), the log2 fold change is inactive: 0.007.

With EIF3L (UniProt Q9Y262), the log2 fold change is inactive: 0.002.

On to EPB41 (UniProt P11171), for which the log2 fold change is inactive: 0.018.

In the case of EIF2B2 (UniProt P49770), the log2 fold change is inactive: 0.018.

Consider ENSA isoform 3 (UniProt O43768), for which the log2 fold change was inactive: -0.06.

On to ELP2 isoform 6 (UniProt Q6IA86), for which the log2 fold change was inactive: -0.001.

For EIF1AX (UniProt P47813), the log2 fold change was inactive: -0.023.

EMC6 (UniProt Q9BV81): the log2 fold change is inactive: 0.026.

As to EIF4B (UniProt P23588), the log2 fold change is inactive: -0.06.

Take EIF3H (UniProt O15372): the log2 fold change is inactive: 0.039.

In the case of EEFSEC (UniProt P57772), the log2 fold change is inactive: 0.117.

Take ELP4 (UniProt Q96EB1): the log2 fold change was inactive: 0.085.

For the target ELMOD2 (UniProt Q8IZ81), the log2 fold change is inactive: -0.022.

EML3 isoform 2 (UniProt Q32P44): the log2 fold change was inactive: 0.272.

Consider ELOB (UniProt Q15370), for which the log2 fold change was inactive: -0.006.

As for EEF2 (UniProt P13639), the log2 fold change was inactive: -0.056.

In the case of EI24 (UniProt O14681), the log2 fold change is inactive: -0.072.

For the target EHMT2 (UniProt Q96KQ7), the log2 fold change is inactive: 0.132.

Take EIF1 (UniProt P41567): the log2 fold change was inactive: -0.025.

For the target EIF3D (UniProt O15371), the log2 fold change is inactive: 0.22.

As for ENDOG (UniProt Q14249), the log2 fold change was inactive: -0.022.

Turning to EIF3G (UniProt O75821), the log2 fold change is inactive: 0.084.

For ELP6 (UniProt Q0PNE2), the log2 fold change was inactive: 0.02.

In the case of ENO2 (UniProt P09104), the log2 fold change was inactive: 0.004.

With EIF3E (UniProt P60228), the log2 fold change is inactive: 0.207.

EHHADH (UniProt Q08426): the log2 fold change was inactive: 0.008.

On to EP300 (UniProt Q09472), for which the log2 fold change was inactive: -0.056.

Regarding EIF2D (UniProt P41214), the log2 fold change is inactive: 0.207.

As to EMP3 (UniProt P54852), the log2 fold change was inactive: -0.019.

Consider EFNB1 (UniProt P98172), for which the log2 fold change was inactive: 0.133.

The values are drawn from the supplement of paper PMC10849652.
